Source: PubChem BioAssay AID1508587 (Peter MacCallum Cancer Centre, 2020)

- Assay: 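Retest of knockdowns boosting BRAF inhibitor action on lactate release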 (follow-up of hits)
- System: human WM266.4 melanoma cells with a BRAF V600 mutation
- Knock-down reagent: single siRNA against human genes, 25 nM
- Duration: 96 h
- Conditions: vemurafenib 300 nM (about IC25), given 48 h after transfection for 48 h
- Read-out: 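Medium lactate read by absorbance over DAPI-counted nuclei; ratio with versus without vemurafenib, set against non-targeting siRNA, averaged over 2 replicates; cell number also recorded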
- Reading the numbers: lactate per cell, drug vs no drug: higher = less drug-induced drop in lactate per cell
- Call rule: 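Enhancer call for any duplex whose drug versus no-drug per-cell lactate ratio is below 0.55 (2 SD beneath non-targeting average); genes confirmed when at least 2 of their 4 duplexes qualify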
Here is a random part of about 1,600 reagents. 623 of them (39%) count as active. 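Calls are for each duplex; lactate ratios contain extreme outliers.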 A number with no mark means an inactive call. Reagents against one gene are numbered here. Not all columns of the deposit are shown.

A1BG (alpha-1-B glycoprotein) #1
- lactate per cell, drug vs no drug: 0.78

A1BG (alpha-1-B glycoprotein) #2
- lactate per cell, drug vs no drug: 0.82

A1BG (alpha-1-B glycoprotein) #3
- lactate per cell, drug vs no drug: 0.49 (active)

A1BG (alpha-1-B glycoprotein) #4
- lactate per cell, drug vs no drug: 1.02

TCF3 (transcription factor 3) #1
- lactate per cell, drug vs no drug: 0.62

TCF3 (transcription factor 3) #2
- lactate per cell, drug vs no drug: 0.64

TCF3 (transcription factor 3) #3
- lactate per cell, drug vs no drug: 0.54 (active)

TCF3 (transcription factor 3) #4
- lactate per cell, drug vs no drug: 0.55

PPP3CC (protein phosphatase 3 catalytic subunit gamma) #1
- lactate per cell, drug vs no drug: 0.37 (active)

PPP3CC (protein phosphatase 3 catalytic subunit gamma) #2
- lactate per cell, drug vs no drug: 0.59

PPP3CC (protein phosphatase 3 catalytic subunit gamma) #3
- lactate per cell, drug vs no drug: 0.5 (active)

PPP3CC (protein phosphatase 3 catalytic subunit gamma) #4
- lactate per cell, drug vs no drug: 0.82
